The entries are a selection whose mix differs from that of the whole data set.
Compound: COC(=O)C#Cc1ccccc1 [methyl 3-phenylpropiolate]
Experiment: log2 ratio of iodoacetamide-alkyne labeling of the cysteine site, DMSO over compound (competition); higher = stronger covalent engagement of the cysteine by the compound, active = 1 or more
Conditions: 500 µM; treatment time 1 h; system: HEK293T cell lysate
In short: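 HEK293T lysate (2 mg/mL) was treated with DMSO or electrophile (500 µM, 1 h, ambient temperature), then iodoacetamide alkyne (1 h), clicked to sCIP-TMT reagents, pooled, trypsin-digested overnight at 37 °C, streptavidin-enriched and acid-eluted. Peptides were run on Orbitrap Eclipse LC-MS/MS with FAIMS and quantified in FragPipe. The log2 competition ratio per cysteine is mean control-channel over mean compound-channel reporter intensity. Duplicate channels and three replicates were used, and cysteines quantified in only one replicate were excluded.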

Chains of the proteins cited; added tags and fusions are not shown. Lines headed by an entry give the natural chain unless they say otherwise; changes in a name come on top.
UniProt P14618, whole entry, looked up: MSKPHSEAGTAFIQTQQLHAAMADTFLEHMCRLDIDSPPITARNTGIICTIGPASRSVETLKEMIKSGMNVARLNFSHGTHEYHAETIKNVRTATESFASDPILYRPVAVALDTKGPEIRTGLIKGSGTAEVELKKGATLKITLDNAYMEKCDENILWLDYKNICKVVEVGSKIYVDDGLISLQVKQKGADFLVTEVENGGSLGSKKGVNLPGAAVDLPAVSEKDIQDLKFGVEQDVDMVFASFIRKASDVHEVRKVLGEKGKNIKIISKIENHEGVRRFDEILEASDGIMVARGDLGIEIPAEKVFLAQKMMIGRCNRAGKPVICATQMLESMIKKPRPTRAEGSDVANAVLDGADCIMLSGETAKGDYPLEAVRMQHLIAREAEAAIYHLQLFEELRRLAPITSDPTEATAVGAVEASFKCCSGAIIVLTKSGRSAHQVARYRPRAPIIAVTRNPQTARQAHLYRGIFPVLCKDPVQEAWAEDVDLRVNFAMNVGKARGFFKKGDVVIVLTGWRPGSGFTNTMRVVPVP
UniProt P14314: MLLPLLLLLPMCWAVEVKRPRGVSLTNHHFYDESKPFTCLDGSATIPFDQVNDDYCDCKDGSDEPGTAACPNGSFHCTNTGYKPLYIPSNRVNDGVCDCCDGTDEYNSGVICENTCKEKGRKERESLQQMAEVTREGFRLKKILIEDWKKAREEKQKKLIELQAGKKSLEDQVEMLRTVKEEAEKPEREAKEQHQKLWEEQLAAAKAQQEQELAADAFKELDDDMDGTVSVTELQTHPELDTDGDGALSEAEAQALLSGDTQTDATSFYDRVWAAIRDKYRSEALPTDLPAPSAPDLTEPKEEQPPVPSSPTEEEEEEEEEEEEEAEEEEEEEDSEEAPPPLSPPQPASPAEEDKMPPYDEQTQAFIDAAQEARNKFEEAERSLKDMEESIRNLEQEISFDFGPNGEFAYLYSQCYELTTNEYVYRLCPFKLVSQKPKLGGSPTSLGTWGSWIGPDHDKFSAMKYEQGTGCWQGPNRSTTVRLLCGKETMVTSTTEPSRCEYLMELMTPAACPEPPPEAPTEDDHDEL
UniProt P09382, whole entry, looked up: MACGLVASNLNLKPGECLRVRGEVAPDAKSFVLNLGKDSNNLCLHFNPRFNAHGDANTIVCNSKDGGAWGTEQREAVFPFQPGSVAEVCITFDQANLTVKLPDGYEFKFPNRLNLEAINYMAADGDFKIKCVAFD
UniProt P0CG30: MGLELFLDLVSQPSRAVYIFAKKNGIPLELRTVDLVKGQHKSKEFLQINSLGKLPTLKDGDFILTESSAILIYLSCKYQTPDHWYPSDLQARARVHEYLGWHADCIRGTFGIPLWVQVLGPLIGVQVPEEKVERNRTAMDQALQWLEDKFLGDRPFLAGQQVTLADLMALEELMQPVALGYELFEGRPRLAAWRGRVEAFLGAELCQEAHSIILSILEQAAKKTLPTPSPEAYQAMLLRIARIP
UniProt P08134, whole entry: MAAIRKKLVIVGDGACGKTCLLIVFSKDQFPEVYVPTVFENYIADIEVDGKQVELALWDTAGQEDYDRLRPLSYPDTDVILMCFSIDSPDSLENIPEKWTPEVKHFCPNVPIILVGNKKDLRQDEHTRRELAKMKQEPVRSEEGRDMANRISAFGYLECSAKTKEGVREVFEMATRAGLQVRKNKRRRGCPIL
UniProt P10155: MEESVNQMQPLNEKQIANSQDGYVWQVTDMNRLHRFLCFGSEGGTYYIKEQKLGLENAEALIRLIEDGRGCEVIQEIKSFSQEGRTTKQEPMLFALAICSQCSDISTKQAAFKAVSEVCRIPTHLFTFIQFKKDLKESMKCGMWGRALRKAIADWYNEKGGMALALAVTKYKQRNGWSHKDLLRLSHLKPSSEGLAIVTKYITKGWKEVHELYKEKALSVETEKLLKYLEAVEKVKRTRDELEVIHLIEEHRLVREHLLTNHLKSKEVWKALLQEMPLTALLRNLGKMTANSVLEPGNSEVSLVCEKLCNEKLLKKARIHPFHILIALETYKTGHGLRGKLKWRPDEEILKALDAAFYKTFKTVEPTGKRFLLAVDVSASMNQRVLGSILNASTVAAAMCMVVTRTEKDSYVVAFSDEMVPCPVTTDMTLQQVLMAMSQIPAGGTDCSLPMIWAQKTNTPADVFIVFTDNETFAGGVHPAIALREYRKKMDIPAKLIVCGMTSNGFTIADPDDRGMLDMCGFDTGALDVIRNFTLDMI
UniProt P09874, whole entry, looked up: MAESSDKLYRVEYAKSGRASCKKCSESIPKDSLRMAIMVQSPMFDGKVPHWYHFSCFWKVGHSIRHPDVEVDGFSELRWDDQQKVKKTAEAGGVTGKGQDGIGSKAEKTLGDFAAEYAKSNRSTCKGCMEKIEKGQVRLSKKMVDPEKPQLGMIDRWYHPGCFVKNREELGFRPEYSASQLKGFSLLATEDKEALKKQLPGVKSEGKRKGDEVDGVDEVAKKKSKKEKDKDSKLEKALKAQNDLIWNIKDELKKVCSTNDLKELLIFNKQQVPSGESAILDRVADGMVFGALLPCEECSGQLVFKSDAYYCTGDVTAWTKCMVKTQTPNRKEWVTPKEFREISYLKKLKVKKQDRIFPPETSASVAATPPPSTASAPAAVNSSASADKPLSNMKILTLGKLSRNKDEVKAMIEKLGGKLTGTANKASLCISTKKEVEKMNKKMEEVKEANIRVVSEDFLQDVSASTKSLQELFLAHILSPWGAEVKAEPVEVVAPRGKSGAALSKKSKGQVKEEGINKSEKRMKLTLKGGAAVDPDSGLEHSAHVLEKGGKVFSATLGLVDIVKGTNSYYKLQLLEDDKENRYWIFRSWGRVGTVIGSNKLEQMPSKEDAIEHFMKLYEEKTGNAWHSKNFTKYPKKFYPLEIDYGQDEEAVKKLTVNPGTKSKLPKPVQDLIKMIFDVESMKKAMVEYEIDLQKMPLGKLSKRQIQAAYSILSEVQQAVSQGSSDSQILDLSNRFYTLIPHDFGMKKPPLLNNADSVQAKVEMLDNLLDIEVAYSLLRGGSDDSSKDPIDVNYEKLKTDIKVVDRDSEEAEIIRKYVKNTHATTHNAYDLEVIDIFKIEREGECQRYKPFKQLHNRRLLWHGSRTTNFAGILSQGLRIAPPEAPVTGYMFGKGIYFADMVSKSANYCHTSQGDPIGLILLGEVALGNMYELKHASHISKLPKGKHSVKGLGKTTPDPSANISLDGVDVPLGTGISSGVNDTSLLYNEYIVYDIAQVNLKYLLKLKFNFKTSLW
UniProt P11940, whole entry, looked up: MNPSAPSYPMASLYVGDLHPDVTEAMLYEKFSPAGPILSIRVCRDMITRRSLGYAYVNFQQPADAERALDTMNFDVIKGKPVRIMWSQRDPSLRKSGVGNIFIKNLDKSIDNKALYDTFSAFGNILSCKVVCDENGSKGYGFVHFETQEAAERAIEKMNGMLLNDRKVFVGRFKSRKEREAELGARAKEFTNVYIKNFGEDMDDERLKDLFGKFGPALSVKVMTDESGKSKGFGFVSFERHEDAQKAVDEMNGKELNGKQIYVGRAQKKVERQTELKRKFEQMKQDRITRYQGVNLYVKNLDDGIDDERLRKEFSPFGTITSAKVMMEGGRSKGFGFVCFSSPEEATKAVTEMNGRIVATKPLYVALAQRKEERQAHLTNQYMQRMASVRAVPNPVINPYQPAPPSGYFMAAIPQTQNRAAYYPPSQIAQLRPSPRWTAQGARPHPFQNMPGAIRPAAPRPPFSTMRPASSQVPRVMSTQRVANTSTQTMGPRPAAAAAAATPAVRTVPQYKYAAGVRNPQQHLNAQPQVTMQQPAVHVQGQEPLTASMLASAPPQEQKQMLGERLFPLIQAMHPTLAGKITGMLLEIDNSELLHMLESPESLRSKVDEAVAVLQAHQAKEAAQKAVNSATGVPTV
UniProt P17812: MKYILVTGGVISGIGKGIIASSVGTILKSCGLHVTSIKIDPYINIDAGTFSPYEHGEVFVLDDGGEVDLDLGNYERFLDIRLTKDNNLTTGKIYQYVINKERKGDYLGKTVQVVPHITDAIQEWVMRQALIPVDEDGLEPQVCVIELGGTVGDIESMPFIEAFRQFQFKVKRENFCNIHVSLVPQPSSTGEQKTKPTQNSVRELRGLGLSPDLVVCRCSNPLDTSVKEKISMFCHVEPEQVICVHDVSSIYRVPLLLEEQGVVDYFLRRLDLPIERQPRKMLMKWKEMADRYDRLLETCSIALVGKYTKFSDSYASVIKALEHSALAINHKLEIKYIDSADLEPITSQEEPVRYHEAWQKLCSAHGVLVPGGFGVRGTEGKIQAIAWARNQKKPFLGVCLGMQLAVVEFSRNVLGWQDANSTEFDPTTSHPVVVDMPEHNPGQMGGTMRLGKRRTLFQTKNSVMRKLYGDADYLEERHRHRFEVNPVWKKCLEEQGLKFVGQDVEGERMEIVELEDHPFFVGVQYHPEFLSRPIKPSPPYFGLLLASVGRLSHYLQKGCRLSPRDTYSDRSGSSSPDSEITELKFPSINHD
UniProt P07954: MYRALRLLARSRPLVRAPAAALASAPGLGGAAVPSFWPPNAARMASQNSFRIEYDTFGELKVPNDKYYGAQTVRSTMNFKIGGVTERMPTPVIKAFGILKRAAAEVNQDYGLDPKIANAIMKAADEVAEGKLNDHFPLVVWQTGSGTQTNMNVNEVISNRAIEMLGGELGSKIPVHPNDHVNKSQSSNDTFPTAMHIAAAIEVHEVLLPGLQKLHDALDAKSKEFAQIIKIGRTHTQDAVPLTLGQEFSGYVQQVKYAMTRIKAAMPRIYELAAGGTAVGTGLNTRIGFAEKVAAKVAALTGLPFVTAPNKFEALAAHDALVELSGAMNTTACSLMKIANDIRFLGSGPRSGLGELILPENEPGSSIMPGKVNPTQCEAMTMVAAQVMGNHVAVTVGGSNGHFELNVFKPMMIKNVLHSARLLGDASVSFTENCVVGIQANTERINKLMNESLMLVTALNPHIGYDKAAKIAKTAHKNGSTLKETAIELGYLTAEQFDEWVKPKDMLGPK
UniProt P13693: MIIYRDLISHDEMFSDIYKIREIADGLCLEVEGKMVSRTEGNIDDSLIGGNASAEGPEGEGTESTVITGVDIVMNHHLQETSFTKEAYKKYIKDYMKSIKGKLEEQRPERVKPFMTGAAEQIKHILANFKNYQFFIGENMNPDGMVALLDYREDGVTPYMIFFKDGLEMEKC
UniProt P08243: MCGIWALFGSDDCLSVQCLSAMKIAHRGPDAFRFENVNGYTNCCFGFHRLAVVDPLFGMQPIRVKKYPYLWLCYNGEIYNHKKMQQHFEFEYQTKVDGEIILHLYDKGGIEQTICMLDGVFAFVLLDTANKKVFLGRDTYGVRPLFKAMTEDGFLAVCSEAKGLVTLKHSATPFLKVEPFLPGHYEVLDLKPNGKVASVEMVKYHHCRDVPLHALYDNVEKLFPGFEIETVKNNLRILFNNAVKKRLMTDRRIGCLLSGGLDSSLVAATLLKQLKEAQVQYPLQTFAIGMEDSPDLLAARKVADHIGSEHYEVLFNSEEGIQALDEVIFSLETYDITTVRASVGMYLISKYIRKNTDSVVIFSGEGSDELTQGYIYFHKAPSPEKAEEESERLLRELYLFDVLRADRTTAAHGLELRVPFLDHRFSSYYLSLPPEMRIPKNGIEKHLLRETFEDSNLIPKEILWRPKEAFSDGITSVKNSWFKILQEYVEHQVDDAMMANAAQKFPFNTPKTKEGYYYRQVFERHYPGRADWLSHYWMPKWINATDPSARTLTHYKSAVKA
UniProt P08238, whole entry, looked up: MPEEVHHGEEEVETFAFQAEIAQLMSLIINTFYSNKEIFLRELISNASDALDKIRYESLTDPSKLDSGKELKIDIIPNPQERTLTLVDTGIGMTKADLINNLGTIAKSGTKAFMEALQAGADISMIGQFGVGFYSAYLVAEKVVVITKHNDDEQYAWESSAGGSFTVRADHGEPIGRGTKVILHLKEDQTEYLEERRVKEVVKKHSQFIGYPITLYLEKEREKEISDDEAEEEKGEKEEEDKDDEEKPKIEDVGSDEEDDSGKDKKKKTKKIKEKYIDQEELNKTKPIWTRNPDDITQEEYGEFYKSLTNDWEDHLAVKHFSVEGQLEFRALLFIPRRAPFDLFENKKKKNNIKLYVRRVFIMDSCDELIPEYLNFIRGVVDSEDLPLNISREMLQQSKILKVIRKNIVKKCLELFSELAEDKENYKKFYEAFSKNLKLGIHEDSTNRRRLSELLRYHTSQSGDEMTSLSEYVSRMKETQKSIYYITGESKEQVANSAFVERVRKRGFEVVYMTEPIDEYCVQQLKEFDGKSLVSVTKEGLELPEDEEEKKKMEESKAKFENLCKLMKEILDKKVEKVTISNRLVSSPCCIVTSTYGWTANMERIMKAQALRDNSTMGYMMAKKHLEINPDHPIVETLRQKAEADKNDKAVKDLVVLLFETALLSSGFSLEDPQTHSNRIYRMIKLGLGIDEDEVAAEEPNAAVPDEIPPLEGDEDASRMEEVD

log2 ratio of iodoacetamide-alkyne labeling, active:
PLS3 C33 (UniProt P13797) 1.04

log2 ratio of iodoacetamide-alkyne labeling, inactive:
UniProt P14618_C424 -0.246
RPS2 C182 (UniProt P15880) 0.0331
PRKCSH C471 (UniProt P14314) 0.0601
LGALS1 C17 (UniProt P09382) 0.195
MTHFD1 C195 (UniProt P11586) -0.0967
MTHFD1 C143 (UniProt P11586) -0.0254
UniProt P0CG30_C105 -0.204
UniProt P08134_C107 -0.0351
CAPN2 C640 (UniProt P17655) 0.517
PDHA1 C261 (UniProt P08559) -0.175
UniProt P14618_C49 -0.193
HSP90AA1 C597 (UniProt P07900) -0.0676
UniProt P10155_C520 0.112
PARP1 C429 (UniProt P09874) 0.192
IMPDH2 C173 (UniProt P12268) -0.326
PABPC1 C339 (UniProt P11940) 0.267
HNRNPA1 C175 (UniProt P09651) -0.128
UniProt P17812_C491 0.134
PARP1 C162 (UniProt P09874) 0.206
EPB41 C224 (UniProt P11171) 0.181
UniProt P17812_C243 -0.235
U2AF1L5 C18 (UniProt P0DN76) 0.165
CKB C283 (UniProt P12277) 0.217
PEPD C482 (UniProt P12955) 0.545
CTSB C319 (UniProt P07858) 0.512
FH C434 (UniProt P07954) 0.395
GTF2F2 C116 (UniProt P13984) 0.143
TPT1 C28 (UniProt P13693) 0.212
ARAF C597 (UniProt P10398) 0.904
ASNS C255 (UniProt P08243) -0.158
PARP1 C845 (UniProt P09874) 0.134
ETFA C109 (UniProt P13804) 0.224
HSP90AB1 C412 (UniProt P08238) 0.121
EEF2 C67 (UniProt P13639) -0.0192
UniProt P17252_C499 -0.0376
PARP1 C908 (UniProt P09874) -0.0809

Quoted at random: 2 entries already listed
log2 ratio of iodoacetamide-alkyne labeling, inactive:
UniProt P17812_C491 0.134
CKB C283 (UniProt P12277) 0.217

Reference: the supplement of paper PMC11006884
